Results are given in words; binding and its absence hold for the method and conditions named. Some entries that bind do so weakly or less than the wild type.
T1: NPR3 (Arabidopsis NPR1 paralog) (Arabidopsis) (UniProt Q8L746)
T1 sequence: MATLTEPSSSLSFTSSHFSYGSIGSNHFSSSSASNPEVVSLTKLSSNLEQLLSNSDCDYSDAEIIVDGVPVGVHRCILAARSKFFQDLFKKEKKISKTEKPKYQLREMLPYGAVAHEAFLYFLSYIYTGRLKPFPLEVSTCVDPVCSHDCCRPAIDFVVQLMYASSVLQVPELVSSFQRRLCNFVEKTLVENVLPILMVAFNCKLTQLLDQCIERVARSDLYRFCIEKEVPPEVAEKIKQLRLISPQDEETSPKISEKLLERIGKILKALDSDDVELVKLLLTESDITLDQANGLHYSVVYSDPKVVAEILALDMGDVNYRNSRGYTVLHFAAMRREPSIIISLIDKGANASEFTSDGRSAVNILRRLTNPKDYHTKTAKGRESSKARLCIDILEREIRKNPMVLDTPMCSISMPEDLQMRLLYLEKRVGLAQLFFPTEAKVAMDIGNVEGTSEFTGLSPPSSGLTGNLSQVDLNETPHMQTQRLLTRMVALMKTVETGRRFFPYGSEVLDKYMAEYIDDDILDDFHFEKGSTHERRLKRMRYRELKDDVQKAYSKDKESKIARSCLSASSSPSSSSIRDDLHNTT

B1: NPR3 (Arabidopsis NPR1 paralog) (protein, UniProt Q8L746 1-586)
chain: T1 sequence
B2: NPR4 (Arabidopsis NPR1 paralog) (protein, UniProt Q5ICL9 1-574)
chain: MAATAIEPSSSISFTSSHLSNPSPVVTTYHSAANLEELSSNLEQLLTNPDCDYTDAEIIIEEEANPVSVHRCVLAARSKFFLDLFKKDKDSSEKKPKYQMKDLLPYGNVGREAFLHFLSYIYTGRLKPFPIEVSTCVDSVCAHDSCKPAIDFAVELMYASFVFQIPDLVSSFQRKLRNYVEKSLVENVLPILLVAFHCDLTQLLDQCIERVARSDLDRFCIEKELPLEVLEKIKQLRVKSVNIPEVEDKSIERTGKVLKALDSDDVELVKLLLTESDITLDQANGLHYAVAYSDPKVVTQVLDLDMADVNFRNSRGYTVLHIAAMRREPTIIIPLIQKGANASDFTFDGRSAVNICRRLTRPKDYHTKTSRKEPSKYRLCIDILEREIRRNPLVSGDTPTCSHSMPEDLQMRLLYLEKRVGLAQLFFPAEANVAMDVANVEGTSECTGLLTPPPSNDTTENLGKVDLNETPYVQTKRMLTRMKALMKTVETGRRYFPSCYEVLDKYMDQYMDEEIPDMSYPEKGTVKERRQKRMRYNELKNDVKKAYSKDKVARSCLSSSSPASSLREALENPT

What was measured:
[1] = target: T1, NPR3 (Arabidopsis NPR1 paralog) (Arabidopsis); assay: two-hybrid; mated diploid yeast diluted to OD600 1.0, 0.1 and 0.01, plated on quadruple dropout (-Leu-Trp-His-Ade) agar with or without 200 uM NaSA or SA analogs, 30 C for 72 h; read-out is colony growth
[2] = target: NPR4 (Arabidopsis NPR1 paralog) (Arabidopsis) (UniProt Q5ICL9); assay: as above

| Binder | binding [1] | binding [2] |
| --- | --- | --- |
| B1 | binds |  |
| B2 | binds | binds |

Source: paper PMC6651783
